Some results were stated once for a whole list of compounds, not compound by compound.
Target: T1, CCR1 (Homo sapiens, UniProt P32246)
T1 construct: a monocytic derived cell line that endogenously expresses CCR1; host or cells: THP-1 cells
T1 sequence (P32246 1-355): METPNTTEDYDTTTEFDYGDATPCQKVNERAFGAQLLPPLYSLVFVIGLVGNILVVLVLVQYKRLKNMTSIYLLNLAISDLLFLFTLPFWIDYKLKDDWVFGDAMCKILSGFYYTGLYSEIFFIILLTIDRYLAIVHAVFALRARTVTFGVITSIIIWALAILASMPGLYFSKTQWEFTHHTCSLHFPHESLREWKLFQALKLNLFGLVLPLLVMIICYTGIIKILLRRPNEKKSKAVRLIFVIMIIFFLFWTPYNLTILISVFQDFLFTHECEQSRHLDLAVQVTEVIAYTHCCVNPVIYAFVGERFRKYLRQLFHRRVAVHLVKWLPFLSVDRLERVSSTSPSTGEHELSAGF
Experiment: CCR1 inhibition (THP-1 FLIPR assay / THP-1 whole cell radioligand binding assay; the patent does not say which gave the values)
Assay type: cell-based
Conditions: threshold list, less than 1 uM; compounds of Table 1; read-out: inhibitory activity

Row | Structure (SMILES) | IC50
1 | O=C(O)c1cccc2nc(C(F)(F)F)nc(N3C[C@@H](O)[C@H](N4CCN(C(=O)c5ccc(Cl)cc5)CC4)C3)c12 [Example 160, 4-{3-[4-(4-cblorobenzoyl)piperazin-1-yl]-4-hydroxypyrrolidin-1-yl}-2-(trifluoromethyl)quinazoline-5-carboxylic acid] | < 1000 nM
2 | NC(=O)c1ccc2nc(C(F)(F)F)nc(N3C[C@@H](O)[C@H](N4CCN(C(=O)c5ccc(Cl)cc5)CC4)C3)c2c1 [Example 189, 4-{(3R,4R)-3-[4-(4-chlorobenzoyl)piperazin-1-yl]-4-hydroxypyrrolidin-1-yl}-2-(trifluoromethyl)quinazoline-6-carboxamide] | < 1000 nM
